Patent publication US20080057055A1, “OLD-35 as an inflammatory agent” (priority 2004, published 2008)
No constants are given. Whether binding was seen depends on the method and setting. Some results given as binding are weak or reduced against the parent protein; the word gives no strength.

Molecular target: T1, NF-κB p50 subunit (human), P19838
T1 chain: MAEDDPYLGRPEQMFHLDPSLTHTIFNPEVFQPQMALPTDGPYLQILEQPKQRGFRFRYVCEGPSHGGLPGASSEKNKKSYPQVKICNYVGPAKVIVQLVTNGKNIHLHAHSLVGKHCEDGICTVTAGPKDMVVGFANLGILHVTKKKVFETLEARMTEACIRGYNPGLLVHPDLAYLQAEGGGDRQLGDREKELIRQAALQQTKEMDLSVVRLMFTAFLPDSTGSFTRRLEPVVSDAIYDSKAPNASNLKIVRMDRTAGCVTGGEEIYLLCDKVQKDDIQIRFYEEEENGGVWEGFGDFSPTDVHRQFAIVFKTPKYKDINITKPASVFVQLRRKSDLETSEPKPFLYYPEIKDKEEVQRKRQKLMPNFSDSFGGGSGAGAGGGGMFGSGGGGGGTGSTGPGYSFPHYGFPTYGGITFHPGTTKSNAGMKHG
Experiment: complex composition inferred from EMSA supershift
Details: remark: other sources report otherwise

B1: NF-κB p50 subunit (other, human, UniProt P19838 1-433, looked up)
chain: T1 chain
notes: also called NF-κB1 (p50/p105)
binding: binds
